Laboratory results reported in PubChem BioAssay AID1688 (National Center for Advancing Translational Sciences (NCATS), 2009).
Screen size: about 220,000 compounds; about 2,400 (1.1%) were called active. The inconclusive results got no clear call from the source; some entries with a clear call stand among them for comparison. Calls follow the shape of the dose curve; as a rule, active = well fitted inhibition curve with a large enough effect; inconclusive = small, poorly fitted or top-dose-only effect, or effect the other way; inactive = no such curve, though single readings can be large or run the other way. A potency beside an inconclusive call is a rough fit, not a confirmed value.

experiment: qHTS Multiplex Assay to Identify Dual Action Probes in a Cell Model of Huntington: Aggregate Formation (GFP); details: PC12 HttQ103-GFP aggregates, Acumen cytometry, 40 h; activity change, negative = inhibition: at 46.1 µM (top of the series) unless noted; also: nearly all actives have a fitted effect of over 60% in size
Procedure, shortened: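 Steps: seed 1500 PC12 HTTQ103-GFP cells/well; add tebufenozide, 100 nM final; add compound titration; add ATPLite reagent; quantify GFP aggregates by laser scanning cytometry.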
% is scaled to controls: 0 for no effect and ±100 for the full control effect; potency is read from the fitted curve at half-maximal effect.

| Structure (SMILES) | Potency | activity change, negative = inhibition |
| --- | --- | --- |
| O=c1c(Cl)nc2cc(Cl)ccc2n1CCNc1ncc(C(F)(F)F)cc1Cl | inconclusive: 35.5 µM [inhibitor, single point] | – |
| Cc1ccc(S(=O)(=O)C(C#N)c2nc3ccccc3nc2N2CCN(C)CC2)cc1C (stereo unspecified) | inconclusive: 35.5 µM [activator, partial curve] | – |
| COC(=O)c1cc2occc2n1Cc1nc(-c2ccccc2C)oc1C | inconclusive: 6.31 µM [activator, single point] | – |
| Cc1ccc(NCC(=O)N=Nc2c(O)[nH]c3ccc([N+](=O)[O-])cc23)cc1 | – | inactive: 8.8% [at 9.22 µM] |
| COc1ccc(NC(=O)COC(=O)c2ccc(OCc3ccc(Cl)cc3Cl)c(OC)c2)c(OC)c1 | inconclusive: 5.62 µM [inhibitor, single point] | – |
| CCCN(CCC)C(=O)CC(c1ccccc1)c1ccco1 (stereo unspecified) | – | inactive: -1.99% [at 9.22 µM] |
| CC(C)C1Oc2ccccc2N(CC(=O)N(Cc2ccccn2)C2CC2)C1=O (stereo unspecified) | – | inactive: -3.98% |
| c1ccc(Nc2nc(N3CCOCC3)nc(N3CCOCC3)n2)cc1 | inconclusive: 12.6 µM [inhibitor, partial curve] | – |
| Cc1ccccc1NC(=O)c1sc2nc3c(c(-c4ccco4)c2c1N)CCC3 | inconclusive: 8.91 µM [inhibitor, partial curve, poor fit] | – |
| CCC/C=N/NC(=O)c1cc(-c2ccccc2)nc2ccccc12 | – | inactive: -12.2% |
| CCOc1ccc(CC(=O)NNC(=O)/C=C/C(=O)O)cc1 | – | inactive: -11.3% [at 9.22 µM] |
| Cc1nc2c3cc(F)ccc3n(Cc3ccccc3F)c2s1 | – | inactive: 0.312% |
| C(=N\N1CCN(Cc2cccc3ccccc23)CC1)/c1cccnc1 | inconclusive: 35.5 µM [inhibitor, single point] | – |
| CCOC(=O)c1oc2ccccc2c1NC(=O)COc1cccc(OC)c1 | – | inactive: 8.78% |
| Cc1nc(CNS(=O)(=O)c2cccnc2)cs1 | – | inactive: 12.4% |
| Cc1ccc(NC(=O)NC(=O)CSc2nnc(-c3ccc(OC(F)F)cc3)n2N)c(C)c1 | inconclusive: 2.82 µM [activator, single point] | – |
| CCOc1ccccc1Nc1nc(-c2sc(NC(=O)c3ccco3)nc2C)cs1 | inconclusive: 12.6 µM [inhibitor, partial curve] | – |
| c1ccc(-c2noc(CN3CCN(C(c4ccccc4)c4ccccc4)CC3)n2)cc1 | inconclusive: 35.5 µM [inhibitor, single point] | – |
| O=C(NC1CCCCC1)C(c1cccnc1)N(C(=O)CCl)c1ccc(F)cc1 (stereo unspecified) | active: 6.31 µM | – |
| CN(CC(=O)Nc1ccc(S(=O)(=O)N2CCCC2)cc1)Cc1ccc(Cl)cc1Cl | inconclusive: 35.5 µM [inhibitor, single point] | – |
| CCOC(=O)N/N=C/c1ccc(Oc2ccccc2)cc1 | inconclusive: 35.5 µM [inhibitor, single point] | – |
| CC(C)c1ccc2c(c1)[C@H]1OCC[C@H]1[C@@H](c1cccs1)N2 | – | inactive: -19.9% |
| CN1CCN(Cc2ccc(OCc3ccccc3)cc2)CC1 | – | inactive: 4.02% |
| Brc1ccc(-c2nnc3n2CCCCC3)cc1 | – | inactive: -15.6% |

| Structure (SMILES) | Potency | activity change, negative = inhibition |
| --- | --- | --- |
| Cc1cccc(N=C/C(C(=O)C(F)(F)F)=C(\O)c2ccco2)c1 | inconclusive: 0.708 µM [inhibitor, single point] | – |
| Fc1ccc(CNC(=S)Nc2ccc(OC(F)F)cc2)cc1 | inconclusive: 15.8 µM [inhibitor, single point] | – |
| CCn1c2ccccc2c2nnc(SCC(=O)Nc3cc(C)on3)nc21 | – | inactive: 13.8% |
| CC(C)Nc1ccc(Nc2ccnc3cc4ccccc4cc23)cc1 | – | inactive: -9.78% [at 9.22 µM] |
| Cc1cc([N+](=O)[O-])nn1CC(=O)Nc1sc2c(c1C(N)=O)CCCC2 | – | inactive: 5.18% |
| CCc1nnc(NC(=O)CSc2nnc(-c3ccccc3NC(=O)c3ccccc3)o2)s1 | – | inactive: 42.7% [at 9.22 µM] |
| O=C(C[n+]1cc(-c2ccc(Br)cc2)n2c1CCCCC2)c1ccccc1 | inconclusive: 15.8 µM [inhibitor, single point] | – |
| O=C(N/N=C/c1ccccc1)c1c(O)c2ccccc2[nH]c1=O | active: 22.4 µM | – |
| O=C(CCSc1nnc(-c2ccncc2)o1)Nc1ccc(Cl)cc1 | inconclusive: 1.26 µM [inhibitor, single point] | – |
| c1ccc(CN(Cc2cccs2)C(c2cccs2)c2nnnn2C2CCCC2)cc1 (stereo unspecified) | inconclusive: 25.1 µM [inhibitor, single point] | – |
| CCOc1ccc(CC2CCC(=O)NC2=O)cc1 (stereo unspecified) | inconclusive: 3.16 µM [inhibitor, single point] | – |
| COC(=O)c1c(-c2cccc3ccccc23)csc1NC(=O)Cc1ccc(OC)c(OC)c1 | active: 12.6 µM | – |
| O=S1(=O)C=C(SCCN2CCCC2)c2ccccc21 | inconclusive: 11.2 µM [activator, partial curve] | – |
| CCC(CO)NCc1ccc(Br)cc1 (stereo unspecified) | – | inactive: 25.5% |
| Clc1ccccc1-c1nnc2sc(-c3cccs3)nn12 | inconclusive: 35.5 µM [inhibitor, single point] | – |
| COc1ccc(-c2c[n+]3c4n2CCCCC4=C(c2ccc(Br)cc2)C3)cc1 | inconclusive: 25.1 µM [inhibitor, single point] | – |
| COc1cc(C2CC(=O)N(CC(=O)NCc3ccco3)c3ccccc3S2)cc(OC)c1OC (stereo unspecified) | – | inactive: 25.4% |
| CCCSc1nc(-n2ncc(C#N)c2N)c2c3c(sc2n1)CCC(C)C3 (stereo unspecified) | inconclusive: 35.5 µM [inhibitor, single point] | – |
| COc1cc(/C=C2/SC(=O)N(Cc3ccccc3Cl)C2=O)ccc1OCc1ccncc1 | – | inactive: 2.63% |
| CCn1cc(C(=O)NCc2ccco2)c(=O)c2cc(S(=O)(=O)N3CCCCCC3)ccc21 | active: 12.6 µM | – |
| O=C(Oc1ccc(N(Cc2cccs2)C2=NS(=O)(=O)c3ccccc32)cc1)c1ccc(Cl)cc1 | inconclusive: 10 µM [inhibitor, single point] | – |
| CCOc1ccc(N=Nc2c(=O)[nH]n3c(=O)c4c([nH]c23)CCCC4)cc1 | inconclusive: 35.5 µM [activator, single point] | – |
| CCOC(=O)C1=C(C)N[C@@]2(O)c3ccccc3C(=O)[C@@]12O | – | inactive: -22.7% |
| COC(=O)CSc1nc(N)c(C#N)c(-c2ccc(O)cc2)c1C#N | – | inactive: -14.4% [at 9.22 µM] |

| Structure (SMILES) | Potency | activity change, negative = inhibition |
| --- | --- | --- |
| CC(=O)NC(NC(=S)Nc1ccc(N=Nc2ccccc2)cc1)C(Cl)(Cl)Cl (stereo unspecified) | inconclusive: 5.62 µM [inhibitor, single point] | – |
| CC12CC3CC(C)(C1)CC(N)(C3)C2 | inconclusive: 35.5 µM [inhibitor, single point] | – |
| COc1ccccc1N(CC(O)COc1c(C)cc(C)cc1C)S(=O)(=O)c1ccccc1 (stereo unspecified) | inconclusive: 11.2 µM [inhibitor, partial curve] | – |
| CCN(CC)S(=O)(=O)c1ccc(Cl)c(C(=O)N2CCc3ccccc32)c1 | inconclusive: 10 µM [inhibitor, partial curve, poor fit] | – |
| Cn1c(=O)c2c(nc(-n3ccnc3)n2C)n(C)c1=O | – | inactive: 0.0969% |
| COc1cc(NS(=O)(=O)c2ccc(N/C=C(\C#N)c3nc4cc(Cl)ccc4o3)cc2)nc(OC)n1 | inconclusive: 7.08 µM [activator, partial curve] | – |
| CCn1cc(C(=O)NCc2ccc3c(c2)OCO3)c(=O)c2cc(S(=O)(=O)N(C)C)ccc21 | – | inactive: -6.85% |
| C[C@@H]1C[C@H]2[C@H]3C[C@@H](F)C4=CC(=O)C=C[C@]4(C)[C@@]3(Cl)[C@@H](O)C[C@@]2(C)[C@@H]1C(=O)COC(=O)C(C)(C)C | – | inactive: -18.2% |
| O=C(Nc1ccccc1)C1=C[C@@H](c2ccc(Br)cc2)C[C@@H](OCCCCO)O1 | – | inactive: 1.48% [at 9.22 µM] |
| Cc1ccccc1-c1ccc(Nc2ccc(C(=O)N3CCOCC3)cc2)nn1 | inconclusive: 17.8 µM [inhibitor, single point] | – |
| O=C1C2C3C=CC(C3)C2C(=O)N1CNc1ccc(O)cc1 (stereo unspecified) | inconclusive: 22.4 µM [activator, single point] | – |
| CCOc1ccc(/C=C/C(O)=C2/C(=O)N(C)C3(C)CC2c2ccccc2O3)cc1OC (stereo unspecified) | inconclusive: 35.5 µM [inhibitor, single point] | – |
| c1nc(NC2CCCC2)c2[nH]cnc2n1 | inconclusive: 10 µM [inhibitor, partial curve, poor fit] | – |
| CC(C)(C)NC(=O)CCN(/N=C/c1ccc([N+](=O)[O-])o1)C1=NS(=O)(=O)c2ccccc21 | inconclusive: 17.8 µM [inhibitor, single point] | – |
| Cc1ccc(NC(=O)CSc2nc3c(cc2C#N)C(=O)CCC3)cc1S(=O)(=O)N(C)C | inconclusive: 22.4 µM [activator, partial curve] | – |
| COc1ccc2c(c1)-c1ccccc1S(=O)(=O)N2C | inconclusive: 5.62 µM [inhibitor, single point] | – |
| COC(=O)c1ccccc1NC(=O)C(=O)NCc1ccncc1 | – | inactive: 12.1% |
| COc1ccc(-c2nnc(CSc3nnc(-c4ccncc4)n3C3CCCCC3)o2)cc1OC | – | inactive: -3.85% |
| COC(=O)C1=C(C)N(Cc2ccco2)C(=O)N[C@@H]1c1ccccc1 | – | inactive: -5.85% |
| O=C(CN1CCN(C(=O)N2CCOCC2)CC1)Nc1ccc(Br)cc1 | – | inactive: 4.32% |
| COc1ccc(CN(C(=O)Cn2nnc(-c3ccc(C)o3)n2)C(C(=O)NCC2CCCO2)c2ccco2)cc1 (stereo unspecified) | – | inactive: -28.3% [at 9.22 µM] |
| CCOC(=O)C1=C(C)N=C2c3ccccc3C(=O)C2C1c1ccc(Br)cc1 (stereo unspecified) | inconclusive: 17.8 µM [inhibitor, single point] | – |
| COC(=O)c1sc(S(=O)(=O)NCc2cccs2)c(C(=O)OC)c1C | – | inactive: -9.04% |

Ordered by length of the SMILES (ascending): part of the list above.

| Structure (SMILES) | Potency | activity change, negative = inhibition |
| --- | --- | --- |
| COc1ccc2c(c1)-c1ccccc1S(=O)(=O)N2C | inconclusive: 5.62 µM [inhibitor, single point] | – |
| Cn1c(=O)c2c(nc(-n3ccnc3)n2C)n(C)c1=O | – | inactive: 0.0969% |
| CC(=O)NC(NC(=S)Nc1ccc(N=Nc2ccccc2)cc1)C(Cl)(Cl)Cl (stereo unspecified) | inconclusive: 5.62 µM [inhibitor, single point] | – |
